This assay is described as follows: qHTS Assay for Lipid Storage Modulators in Drosophila S3 Cells.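 For cell number change: cells counted by Cell Tracker Red CMTPX staining in the red channel.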 The note with it: BODIPY lipid droplet fluorescence, 18-24 h; for cell number change: measured here: cell count max response, cells fed with added oleic acid. In short, it runs like this:
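Drosophila S3 cells got compounds at several concentrations plus oleic acid (400 uM solution). Laser-scanning cytometry with 488 nm excitation read lipid droplets at 500-530 nm and cells at 575-640 nm. Percent activity was relative to 20 uM Triacsin C.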

Setting [1] is: measured here: lipid fluorescence (Fed channel) AC50, cells fed with added oleic acid.
Where [2] appears, read: measured here: cell number channel AC50, cells fed with added oleic acid.

This is one part of the list. Further columns of the screen follow, without active or inactive calls. Compounds called inactive in the main read-out are mostly missing here. The note in brackets gives the kind of curve behind each potency; many fits are weak.

Take `O=C(Nc1ccccc1Cl)NC1(C(=O)NCc2cccnc2)CCCCC1`: the cell number change stood at 17.2%. Also, under setting [1], the AC50 is 6.51 µM [rising, single point].

Take `CC(=O)N/N=C(\C)c1cccc(C(F)(F)F)c1`: the cell number change is -28.1%. The AC50 under setting [1] is 18.4 µM [falling, single point].

For the compound `O=C(CSc1ccccn1)Nc1ccc2c(c1)oc1ccccc12`, the cell number change is 22.9%. Moreover, the concentration at half-maximal activity (AC50) under setting [1] is 0.82 µM [rising, full curve, poor fit].

On to `CC(C)CC(NC(=O)C(NC(=O)C1CCC(=O)N1C(=O)OCc1ccccc1)C(C)C)C(=O)N1CCCC1C(N)=O` (stereo not drawn), for which the cell number change was -4.2%.

Take `Cc1cc(C)c2nc(Nc3nc(-c4ccccc4)cc(=O)[nH]3)nc(C)c2c1`: the cell number change was -14.3%. Also, the AC50 under setting [1] was 20.6 µM [falling, single point].

`O=C(CCCn1c(=O)c2cccn2c2cccnc21)NCc1cccc(Br)c1`: the cell number change turned out to be 29.7%.

In the case of `COc1ccccc1C(=O)Nc1ccccc1SC`, under setting [1], the AC50 was 20.6 µM [rising, partial curve].

As for `Cc1ccc(S(=O)(=O)N2CCN(CN3C(=O)CC4(CCCC4)C3=O)CC2)cc1`, the cell number change came to 25%. For the same compound, under setting [1], the AC50 was 2.31 µM [rising, full curve, poor fit].

As to `CCOC(=O)c1ccc(N2CCCCC2)c(NS(=O)(=O)c2ccc(C)cc2)c1`, the cell number change is 7.83%. Besides, under setting [1], the half-maximal activity concentration (AC50) was 0.082 µM [rising, full curve, poor fit].

Regarding `NC(=S)NNc1ccc(Cl)c(Cl)c1`, the cell number change was -7.07%.

Consider `O=C(Nc1ccc2c(c1)OCO2)C1CCCN(S(=O)(=O)Cc2ccccc2)C1` (stereo not drawn), for which the cell number change worked out at 55.8%. Under setting [2], the half-maximal activity concentration (AC50) is 1.46 µM [rising, partial curve].

On to `Cc1nn(C2CCS(=O)(=O)C2)c(C)c1CN(C)C(=O)c1ccccc1` (stereo not drawn), for which the cell number change was 40.2%. Moreover, the AC50 under setting [2] is 20.6 µM [rising, single point]. Moreover, the half-maximal activity concentration (AC50) under setting [1] is 25.9 µM [rising, partial curve].

On to `Cc1ccc(S(=O)(=O)N2CCN(C3CC4CCC3C4)CC2)cc1` (stereo not drawn), for which the cell number change is -2.78%.

Regarding `COc1cc(C(C)=O)ccc1OC(C)C(=O)Nc1ccc(S(=O)(=O)N2CCCC2)cc1` (stereo not drawn), the cell number change stood at 20.9%. Further, under setting [1], the AC50 was 0.00517 µM [rising, full curve, poor fit].

Regarding `COc1cc(NC(=O)c2ccc(Br)o2)ccc1NC(=O)c1ccccc1Cl`, the cell number change was -34.4%. For the same compound, the concentration at half-maximal activity (AC50) under setting [2] is 23.1 µM [falling, partial curve, poor fit].

As to `CCn1c(C(=O)N2CCCC(C(=O)NCCc3ccc(C)cc3)C2)cc2sccc21` (stereo not drawn), the cell number change was -18.4%.

On to `Cc1ccc(CN2CCN(/N=C/c3ccc(O)c(O)c3)CC2)cc1`, for which the cell number change stood at 16.1%. The half-maximal activity concentration (AC50) under setting [1] was 20.6 µM [rising, partial curve].

As for `CCCCN(CC)C(=O)CSc1nc2ccccc2c(=O)n1CC1COc2ccccc2O1` (stereo not drawn), the cell number change is 24.4%. Under setting [1], the concentration at half-maximal activity (AC50) is 29.1 µM [rising, single point].

For `Cc1ccc(NC(=O)Nc2ccccc2C(N)=O)cc1`, the cell number change was 12.3%. For the same compound, the half-maximal activity concentration (AC50) under setting [1] is 0.00651 µM [falling, full curve, poor fit].

Regarding `CCCn1c(=O)c2ccccc2n2c(SCCOc3ccc(Cl)cc3)nnc12`, the cell number change is -3.13%. Moreover, under setting [1], the AC50 was 0.259 µM [rising, full curve, poor fit].

As for `O=C(Nc1c(-c2ccc(F)cc2)nc2ccccn12)c1ccc(F)cc1`, the cell number change stood at 21.5%. Also, the half-maximal activity concentration (AC50) under setting [1] is 3.66 µM [rising, partial curve, poor fit].

In the case of `C=CCn1c(=S)[nH]c2cc(C(=O)Nc3ccc(OC)c(OC)c3)ccc2c1=O`, the cell number change was determined as 38.5%. Moreover, the AC50 under setting [2] is 32.6 µM [rising, single point].

Regarding `Cc1nc(-c2ccc(C(=O)N3CCOCC3)cc2)cs1`, the cell number change was -16.8%. For the same compound, the half-maximal activity concentration (AC50) under setting [2] is 0.146 µM [falling, full curve, poor fit].

With `O=C(O)C1CCN(S(=O)(=O)Cc2ccccc2)CC1`, the cell number change is -9.8%.

Consider `COC(=O)CCCCCCCCC(O)CN(C)C` (stereo not drawn), for which the cell number change worked out at 24.7%.

For `CCN1CCN(S(=O)(=O)c2ccc(Cl)c(C(=O)N(C)Cc3cccs3)c2)CC1`, the cell number change was 2.24%. In addition, under setting [1], the concentration at half-maximal activity (AC50) is 2.59 µM [falling, single point].

In the case of `COc1cccc(C(CC(=O)NCc2ccco2)NS(=O)(=O)c2ccc(C)cc2)c1OC` (stereo not drawn), the cell number change was found to be 90.8%. In addition, the AC50 under setting [2] was 25.9 µM [rising, partial curve].

As to `Cc1cc(NC(=O)c2cc(-c3ccccc3C)nc3ccccc23)no1`, the cell number change was 20.9%. Also, under setting [1], the half-maximal activity concentration (AC50) is 8.2 µM [rising, partial curve].

Take `Cn1c(COc2ccccc2)nnc1SCC(=O)Nc1ccc(N2CCOCC2)cc1`: the cell number change was -1.28%. Further, under setting [1], the AC50 was 5.8 µM [rising, single point].

For the compound `Cc1ccc(OCCOC(=O)C2CCN(S(=O)(=O)c3ccc(C)c(C)c3)CC2)cc1`, the cell number change was 50%. For the same compound, under setting [2], the AC50 was 16.4 µM [rising, single point].

As for `COc1ccc2nc(C)cc(Nc3ccc(N4CCN(C)CC4)cc3)c2c1`, the cell number change was -32%. For the same compound, the AC50 under setting [2] was 14.6 µM [falling, partial curve, poor fit]. Moreover, under setting [1], the AC50 was 2.06 µM [falling, partial curve].

For `COc1ccccc1C(CNC(=O)c1cccc(S(=O)(=O)Nc2ccc(F)cc2)c1)N(C)C` (stereo not drawn), the cell number change was -15.3%. Besides, the concentration at half-maximal activity (AC50) under setting [1] is 1.64 µM [rising, partial curve].

For `O=C(N/C(=C/c1ccco1)C(=O)N1CCOCC1)c1ccc([N+](=O)[O-])cc1`, the cell number change came to 2.21%.

For `O=C(COC(=O)CNC(=O)c1ccccc1)NCCNC(=O)COC(=O)CNC(=O)c1ccccc1`, the cell number change was -46.1%. For the same compound, the half-maximal activity concentration (AC50) under setting [2] was 14.6 µM [falling, single point].

With `O=C(CCNS(=O)(=O)c1ccc(Br)cc1)NCC1CCCO1` (stereo not drawn), the cell number change came to 8.33%. Also, under setting [1], the AC50 is 11.6 µM [falling, partial curve, poor fit].

For the compound `Cc1ccc2cccc(OCC(=O)N(C)CC(=O)Nc3ccc(F)cc3)c2n1`, the cell number change worked out at 6.14%. For the same compound, the half-maximal activity concentration (AC50) under setting [1] was 20.6 µM [falling, single point].

Take `Cn1c(SCC(=O)Nc2ccccc2[N+](=O)[O-])nnc1C(F)(F)F`: the cell number change worked out at 2.87%.

Regarding `CCCS(=O)(=O)N1CCC(C(=O)NCc2ccco2)CC1`, the cell number change is -36.4%. For the same compound, the AC50 under setting [2] is 7.31 µM [falling, partial curve].

For `CCn1c(NC(=O)c2ccc(F)cc2)c2ccccc2nc1=O`, under setting [1], the half-maximal activity concentration (AC50) is 6.51 µM [falling, single point].

For `O=C(CNC(=O)c1ccc(Cl)cc1Cl)OCn1nnc2ccccc2c1=O`, the cell number change came to 4%.

On to `O=C(COc1ccc(Br)cc1CO)Nc1ccc(S(=O)(=O)N2CCCC2)cc1`, for which the cell number change is 21.7%.

For `CCC(Oc1ccccc1)C(=O)Nc1nnc(C(F)(F)F)s1` (stereo not drawn), the cell number change was -20.7%. For the same compound, the AC50 under setting [2] is 6.51 µM [falling, single point]. Moreover, the AC50 under setting [1] is 5.8 µM [falling, full curve].

Consider `CCCCNC(=O)CCn1c(=O)c2ccccc2n(Cc2ccccc2C)c1=O`, for which the cell number change was -1.11%. The concentration at half-maximal activity (AC50) under setting [1] was 1.3 µM [falling, single point].

As to `COc1cccc(CN2C(=O)Nc3ccccc3C(=O)N2C(C)(C)C)c1`, the cell number change is 31.2%. In addition, the concentration at half-maximal activity (AC50) under setting [2] was 9.2 µM [rising, partial curve, poor fit].

For the compound `CC(C)N1CCC(N2CCN(Cc3cc(F)ccc3-n3cccn3)CC2CCO)CC1` (stereo not drawn), the cell number change is -1.31%.

Turning to `COc1ccc2nc(SCC(=O)N3CCCCCC3)c(C#N)cc2c1`, the AC50 reads like this: under setting [2], 5.17 µM [rising, single point]; under setting [1], 1.16 µM [rising, partial curve, poor fit].

Regarding `CCN1CCN(c2ccc(S(=O)(=O)N3CCOCC3)cc2NC(=O)c2ccc(Cl)cc2Cl)CC1`, the AC50 under setting [1] is 29.1 µM [falling, single point].

`Cc1ccc(CN2CCN(CC(=O)NC(C)CCc3ccccc3)C2=O)cc1` (stereo not drawn): the cell number change was -51.5%. Besides, the AC50 under setting [2] was 11.6 µM [falling, partial curve]. Moreover, under setting [1], the half-maximal activity concentration (AC50) is 13 µM [falling, partial curve].

With `Cc1ccc(S(=O)(=O)CCC(=O)Nc2ccc3c(c2)OCO3)cc1`, under setting [2], the AC50 is 6.51 µM [rising, single point].

`Cc1ccc(S(=O)(=O)N2CCN(S(=O)(=O)N3CCC(C)CC3)CC2)cc1C`: the cell number change stood at 2.94%. For the same compound, the AC50 under setting [1] was 0.206 µM [falling, single point].

In the case of `COC(=O)C1=NN(c2ccccc2)C2(S1)S/C(=C\c1ccccc1)C(=O)N2c1ccccc1` (stereo not drawn), the cell number change was determined as 40.1%. The AC50 under setting [2] was 10.3 µM [rising, partial curve, poor fit].

On to `COc1ccc(N=Nc2cnc(C)nc2-c2ccccc2)cc1`, for which the cell number change is -100%. For the same compound, under setting [2], the half-maximal activity concentration (AC50) is 29.1 µM [falling, single point].

As to `CCCCOc1ccccc1N`, the cell number change was -9.58%.

Consider `Cc1ccc(C(=O)NCCCNC(=O)c2ccccc2C)cn1`, for which the cell number change stood at 8.4%. Moreover, the AC50 under setting [1] was 6.51 µM [falling, single point].

In the case of `NC(=O)c1ccsc1NC(=O)COC(=O)c1ccc(Cl)cc1`, the cell number change came out at 10.4%. In addition, the AC50 under setting [1] is 0.0146 µM [rising, full curve, poor fit].

Take `CC(C)Cc1nnc(NC(=O)Nc2ccccc2)s1`: the cell number change was -38.1%. Besides, the AC50 under setting [2] is 18.4 µM [falling, single point]. Besides, the half-maximal activity concentration (AC50) under setting [1] was 18.4 µM [falling, single point].

As for `O=C(CCCN=C1NS(=O)(=O)c2ccccc21)OCc1cc([N+](=O)[O-])cc2c1OCOC2`, the cell number change is -14.6%.

Regarding `CC(C)N(Cc1ccccc1)C(=O)COC(=O)C1CCN(c2ccc(C(F)(F)F)cn2)CC1`, the half-maximal activity concentration (AC50) under setting [1] is 4.11 µM [falling, single point].

For `CC(C)CCn1c(-c2nonc2N)nc2ccccc21`, the cell number change is -43.2%. The AC50 under setting [2] is 11.6 µM [falling, partial curve]. The AC50 under setting [1] was 13 µM [falling, partial curve].

With `CCOc1cc(C(=O)Nc2ccc(C(=O)NCCN(CC)CC)cc2)ccc1OCC(=O)N1CCOCC1`, the cell number change was -20.5%.

For the compound `O=C(Cn1cnc2c(NC(=O)OCc3ccccc3)ncnc21)NCCN1CCOCC1`, the cell number change turned out to be 27.5%. Moreover, under setting [1], the AC50 is 0.259 µM [rising, partial curve].

As to `Cc1cc(Nc2ccc(N(C)C)cc2)n2ncnc2n1`, under setting [1], the concentration at half-maximal activity (AC50) is 29.1 µM [rising, single point].

`CCCCn1c(N)c(N(CC)C(=O)c2ccc(C)cc2)c(=O)[nH]c1=O`: the cell number change turned out to be 21.4%.

Turning to `COC(=O)[C@]1(CC(C)C)N[C@H](c2ccc(-c3ccc(F)cc3)c(OC)c2)[C@@H]2C(=O)N(C)C(=O)[C@@H]21`, the cell number change is -40.3%. The half-maximal activity concentration (AC50) under setting [2] is 29.1 µM [falling, single point]. Also, under setting [1], the AC50 was 16.4 µM [falling, partial curve].

For the origin of these results see PubChem BioAssay AID2685 (National Center for Advancing Translational Sciences (NCATS), 2010).
